This is an account of results in publication PMC7819943, “Rice protein-binding microarrays: a tool to detect cis-acting elements near promoter regions in rice”.

The list shows a part of the results.

The target of the assay is T1, OsSMF1 (Oryza sativa, UniProt Q6ZLB0 1-436).
T1 sequence: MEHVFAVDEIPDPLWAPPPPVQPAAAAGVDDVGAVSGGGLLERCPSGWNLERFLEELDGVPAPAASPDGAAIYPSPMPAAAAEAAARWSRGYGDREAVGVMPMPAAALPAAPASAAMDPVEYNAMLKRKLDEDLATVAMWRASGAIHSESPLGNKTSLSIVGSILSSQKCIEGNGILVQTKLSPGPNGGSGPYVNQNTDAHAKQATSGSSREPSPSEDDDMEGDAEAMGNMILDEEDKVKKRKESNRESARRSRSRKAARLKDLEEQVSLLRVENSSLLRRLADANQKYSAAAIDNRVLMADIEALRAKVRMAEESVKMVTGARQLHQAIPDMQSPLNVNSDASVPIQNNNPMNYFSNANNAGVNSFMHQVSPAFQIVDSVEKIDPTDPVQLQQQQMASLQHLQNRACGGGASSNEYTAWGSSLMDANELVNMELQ
Put plainly: protein-binding microarray (RPBM); PBS, 2% BSA, 51.3 ng/ul salmon testes DNA, 50 uM zinc acetate, 200 nM TF, 25 C, 1 h; high values mean tight binding. As to conditions: protein: recombinant; tags: N-terminal polyhistidine and DsRed monomer fusion (pET32a); chain copies: 2; label: CyDye5-dUTP incorporated in the synthesized complementary strand; 3' TTTTT single-stranded linker to array surface; dsDNA, one strand shown. The essentials:
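The binding signal is fluorescence intensity per array feature (arbitrary units). Readings came from an Axon 4000B scanner after a washed, 2% BSA-blocked, double-stranded custom Agilent array had been incubated for 1 h at 25 °C with 200 nM protein and 50 µM zinc acetate. The protein was a Ni–NTA-purified transcription factor fused N-terminally to polyhistidine and DsRed, expressed in E. coli BL21-CodonPlus.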
For “TACAATTAGACAATTAATTATTTCGGTAGAGACTGGAAACCGGAGTCACCTAGTGCAG”, the binding signal is 22300 fluorescence intensity (a.u.). The same measure for “CAAGGGCGGCAAGCCGACGTGGCACACGGCGCGCTGGACGCGGAGTCACCTAGTGCAG”: 6950 fluorescence intensity (a.u.); for “TCACCCACCACCCTTCCCTTACCCACTCACTGACACGTGGCGGAGTCACCTAGTGCAG”: 11800 fluorescence intensity (a.u.); for “GCTTGCACAACTAGTGCATCCCTGTCACTGTTTGGCTAGCCGGAGTCACCTAGTGCAG”: 3600 fluorescence intensity (a.u.). The same measure for “AAGCTTCGCCGCCACTCGAGCCCGCCACGTCGACATCACCCGGAGTCACCTAGTGCAG”: 17200 fluorescence intensity (a.u.); for “ACTGTAGCACCACATTGTTAAATCATGACGCAATTAGGCTCGGAGTCACCTAGTGCAG”: 5020 fluorescence intensity (a.u.). “TTTCGGGATCCGACACGGGCTGAATCCGGCCCATCCAAACCGGAGTCACCTAGTGCAG”: the binding signal was 37800 fluorescence intensity (a.u.).

For the sequence “GCGCGTGACATCATCTGGTACGAACCAAACAACCCCTGCACGGAGTCACCTAGTGCAG”, the binding signal is 8460 fluorescence intensity (a.u.). Then “CTCAATTATATATGACTCATGTGTAGTAATAAAACTTATACGGAGTCACCTAGTGCAG”, with 3470 fluorescence intensity (a.u.); and “ATTCTCTTGCACTTATTCCAGCCTACAGGGACAGTAAATCCGGAGTCACCTAGTGCAG”, with 37200 fluorescence intensity (a.u.); and “GAAAGCAAATAATGAACTCAAATCAAATAGCGTCATATGGCGGAGTCACCTAGTGCAG”, with 3390 fluorescence intensity (a.u.). For the sequence “GCGGCGCGAAACCGCACATGGGCTCCACGTGCTAAGAACACGGAGTCACCTAGTGCAG”, the binding signal is 4100 fluorescence intensity (a.u.). The same measure for “AGAAGGTTGGAATTTAGTAAGTTGCAGTTACAAATTCAAGCGGAGTCACCTAGTGCAG”: 53200 fluorescence intensity (a.u.); for “CAAGGATTGGGCATTTTGGAGTGTTGATCTTGTGGGAGGACGGAGTCACCTAGTGCAG”: 33400 fluorescence intensity (a.u.); for “GCATATTTGGACCAAGTCAACCTGCCACATCAGCATAAACCGGAGTCACCTAGTGCAG”: 23500 fluorescence intensity (a.u.). The same measure for “CGCCAGGTTCGCGTCGCCGACGTGCCCTACGCCGCTGCTGCGGAGTCACCTAGTGCAG”: 4160 fluorescence intensity (a.u.). Then “CTCGGCAACTATTCAACGAAATCCACGTGCTTCGCCACCCCGGAGTCACCTAGTGCAG”, with 5980 fluorescence intensity (a.u.).

“CTCCCACATGCTGCGCTCTGTCACCGCAACCACCGCAGCACGGAGTCACCTAGTGCAG”: the binding signal was 3760 fluorescence intensity (a.u.). As to “CAGTGACATGTGTGTGCTTCCCATCTGTGTACTCCAATCTCGGAGTCACCTAGTGCAG”, the binding signal was 4660 fluorescence intensity (a.u.).

With “CCTTGTGTGCACTTCCCCGCGTAACCGCAGCCACCGTCACCGGAGTCACCTAGTGCAG”, the binding signal was 3230 fluorescence intensity (a.u.). Then “CAAGTTATTTTACTCATTCATCACGTGTGACACATATAACCGGAGTCACCTAGTGCAG”, with 4200 fluorescence intensity (a.u.); and “CTAACTATATTTTGATTTTGCCAGCTCCGCAAAAGAATTGCGGAGTCACCTAGTGCAG”, with 4050 fluorescence intensity (a.u.). The same measure for “GTTAGTGCCACGTGGCGCCTTCCCATTCGACCGCCGCCCGCGGAGTCACCTAGTGCAG”: 42100 fluorescence intensity (a.u.); for “ACCCTGCGTGGCCATGATGTCATGGCCGGCCGGCAAGCTTCGGAGTCACCTAGTGCAG”: 11300 fluorescence intensity (a.u.). The same measure for “AGGCAGTGAAGATTGGAGTTGTTGGTACACGACTTCACTCCGGAGTCACCTAGTGCAG”: 3690 fluorescence intensity (a.u.); for “ATGCGCACGTACCACGTACACGCATGCACACGTACGTACACGGAGTCACCTAGTGCAG”: 5400 fluorescence intensity (a.u.). For the sequence “CCAGTGACTGACTTGGACACGGTGCAGTCCTCCAGCTGCTCGGAGTCACCTAGTGCAG”, the binding signal is 5460 fluorescence intensity (a.u.).

For “CCCACCGACCATACAGACACTTGTCCCGTGCTTACATCGGCGGAGTCACCTAGTGCAG”, the binding signal was 3390 fluorescence intensity (a.u.). Take “GGCGACGACATCTTGGCGCGTGTTGTGGCGACGATGGGGACGGAGTCACCTAGTGCAG”: the binding signal was 3630 fluorescence intensity (a.u.). The same measure for “ATACTAGTTTCATGCCCGCGTGTTGCTGCAGGATTTTGTGCGGAGTCACCTAGTGCAG”: 3590 fluorescence intensity (a.u.); for “CTCACCAAACACTGCGTGCTGACGTAATCAGCACGTACTACGGAGTCACCTAGTGCAG”: 7760 fluorescence intensity (a.u.); for “AACTATAGACATGTAAATTTTCTTTATTGAGTCACATAATCGGAGTCACCTAGTGCAG”: 3820 fluorescence intensity (a.u.).

In the case of “TTCCCCTCCGGCAGCCGGCCTCCTCCAATCCATTGACCTCCGGAGTCACCTAGTGCAG”, the binding signal is 17900 fluorescence intensity (a.u.).

With “GCTTTCATATGGATCAATGTGCACGTGTTTATATGAATGCCGGAGTCACCTAGTGCAG”, the binding signal is 5580 fluorescence intensity (a.u.). On to “TTCCGTGGTTGGGAGCGCGTCCACGTCGCGCGCCCCGCGTCGGAGTCACCTAGTGCAG”, for which the binding signal is 4800 fluorescence intensity (a.u.). Then “ATCTTCCTCCTCTGGGGCTGCTGAGCTGACTCCATCGATCCGGAGTCACCTAGTGCAG”, with 3780 fluorescence intensity (a.u.); and “CGGCGGCGGGTCAAAGCAAGCGTGGGATTAGGAGGTGGCGCGGAGTCACCTAGTGCAG”, with 3810 fluorescence intensity (a.u.); and “CTTAGCTGTATATAGGTGACGTCGATGTGTGATGGTGGAACGGAGTCACCTAGTGCAG”, with 5420 fluorescence intensity (a.u.). The same measure for “GCGCGACGCGACGTGACGCGTCCACACTATCCCTAGCATGCGGAGTCACCTAGTGCAG”: 7810 fluorescence intensity (a.u.); for “CCCTGCTGTTGCTGCCCCTGTGGCATATATACCCCTACTGCGGAGTCACCTAGTGCAG”: 3800 fluorescence intensity (a.u.). “GGGTGTGCGTTCGATGATTGGACGTAATAGTCAACGAGATCGGAGTCACCTAGTGCAG”: the binding signal is 25100 fluorescence intensity (a.u.). As for “TTAAAATGAAACTCATGGCCATGCTTAAAATGGAACGGAACGGAGTCACCTAGTGCAG”, the binding signal was 11100 fluorescence intensity (a.u.).
